PubChem BioAssay AID1259405, NCATS, 2018

- Purpose: 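Silenced genes that increase secreted GFP made by CHO cells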 (primary screen)
- Cells: Chinese hamster CHO-K1 ovary cells with stable secreted eGFP expression
- Knock-down reagent: single siRNA against mouse genes, 0.8 pmol siRNA per well (2 µl of 400 nM stock)
- Duration: 3 days
- Read-out: 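Percent of the per-plate non-targeting control median for intracellular GFP per well by laser scanning cytometry and for cell viability by ATP luminescence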
- Reading the numbers: GFP, % of control: higher = more GFP per well, higher productivity; viability (ATP), % of control: higher = more viable cells (more ATP)
- Active means: 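a knock-down is called active if GFP reaches 120% or more of non-targeting control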
Here is an unselected part of about 50,000 reagents. About 4,000 of them (8%) were called active. 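Mouse siRNA library applied to hamster cells; one well for each siRNA.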 Reagents against one gene are numbered here.

Bst1 #1
- GFP, % of control: 102
- viability (ATP), % of control: 69.6
- call: inactive

Bst1 #2
- GFP, % of control: 59.6
- viability (ATP), % of control: 27.4
- call: inactive

Bst1 #3
- GFP, % of control: 75.7
- viability (ATP), % of control: 55.2
- call: inactive

Hsd17b10 #1
- GFP, % of control: 58.6
- viability (ATP), % of control: 53.6
- call: inactive

Hsd17b10 #2
- GFP, % of control: 86
- viability (ATP), % of control: 107
- call: inactive

Hsd17b10 #3
- GFP, % of control: 46.5
- viability (ATP), % of control: 23
- call: inactive

Cebpe #1
- GFP, % of control: 57.5
- viability (ATP), % of control: 60.7
- call: inactive

Cebpe #2
- GFP, % of control: 89.5
- viability (ATP), % of control: 43.7
- call: inactive

Cebpe #3
- GFP, % of control: 125
- viability (ATP), % of control: 110
- call: active

Part of the list above, showing only “GFP, % of control”.
Cebpe #2	89.5
Cebpe #3	125

The listing continues:
Ybx3 #1
- GFP, % of control: 43.1
- viability (ATP), % of control: 36.4
- call: inactive

Ybx3 #2
- GFP, % of control: 75.2
- viability (ATP), % of control: 68.5
- call: inactive

Hmcn2 #1
- GFP, % of control: 46.6
- viability (ATP), % of control: 27.9
- call: inactive

Hmcn2 #2
- GFP, % of control: 74.3
- viability (ATP), % of control: 77.1
- call: inactive

Hmcn2 #3
- GFP, % of control: 86.3
- viability (ATP), % of control: 87.6
- call: inactive

Ptprf #1
- GFP, % of control: 177
- viability (ATP), % of control: 111
- call: active

Ptprf #2
- GFP, % of control: 72.1
- viability (ATP), % of control: 65.7
- call: inactive

Ptprf #3
- GFP, % of control: 88.8
- viability (ATP), % of control: 112
- call: inactive
